The test concerns the target GST-ALG-2^ΔGF122 (human). Nature of the test: pull-down; GST-fused ALG-2 proteins on glutathione Sepharose beads, cleared lysates of HEK293 cells; pulldown products analysed by Western blotting with specific antibodies; as described previously [40]; only the target purified. (In general: In western blotting, separated proteins are transferred to a membrane and probed.)

These are yes or no findings as the source states them, for the method shown. Binding seen in cells or lysates may run through a third protein.

B1: annexin A7, endogenous protein (protein, UniProt P20073 1-488)
chain: MSYPGYPPTGYPPFPGYPPAGQESSFPPSGQYPYPSGFPPMGGGAYPQVPSSGYPGAGGYPAPGGYPAPGGYPGAPQPGGAPSYPGVPPGQGFGVPPGGAGFSGYPQPPSQSYGGGPAQVPLPGGFPGGQMPSQYPGGQPTYPSQINTDSFSSYPVFSPVSLDYSSEPATVTQVTQGTIRPAANFDAIRDAEILRKAMKGFGTDEQAIVDVVANRSNDQRQKIKAAFKTSYGKDLIKDLKSELSGNMEELILALFMPPTYYDAWSLRKAMQGAGTQERVLIEILCTRTNQEIREIVRCYQSEFGRDLEKDIRSDTSGHFERLLVSMCQGNRDENQSINHQMAQEDAQRLYQAGEGRLGTDESCFNMILATRSFPQLRATMEAYSRMANRDLLSSVSREFSGYVESGLKTILQCALNRPAFFAERLYYAMKGAGTDDSTLVRIVVTRSEIDLVQIKQMFAQMYQKTLGTMIAGDTSGDYRRLLLAIVGQ
For the molecule B1, the binding entry is “no binding”.
